From patent publication US20240287184A1 come the findings set out here.

The target of assay [1] is monkey PD1 expressed on the surface of CHO cells (CHO-cynoPD1) (monkey). Kind of assay: flow cytometry on CHO-cynoPD1 cells, compared with PD1-112-C2.
Assay [2] has the same target. Kind of assay: flow cytometry on CHO-cynoPD1 cells.

No constants are given. Whether binding was seen depends on the method and setting. A result given as binding can be weak or reduced; the word gives no strength.

B1: anti-PD-1 humanized antibody c22 (antibody, V domains shown)
VH: QVQLVQSGAEVKKPGASVKVSCKASGYTFTTYYMYWVRQAPGQGLEWMGGINPSNGGTNFNEKFKSRVTMTVDKSTSTAYMELSSLRSEDTAVYYCTRRDSNYDGGFDYWGQGTTVTVSS
VL: DIQLTQSPSSLSASVGDRATITCRASKSVSTSGYSYMHWYQQKPGKAPKLLIYLAYHLESGVPSRFSGSGSGTDFTLTISSVQPEDFATYYCQHSWELPITFGQGTKLEIKR
Take B1: the binding entry in assay [1] and in assay [2] was “binds” each time.

B2: anti-PD-1 humanized antibody c43 (antibody, V domains shown)
VH: QVQLVQSGAEVKKPGASVKVSCKASGYTFTTYYMYWVRQAPGQGLEWIGGINPSNGGTNYAEKFKGRVTLTVDTSTSTAYMELSSLRSEDTAVYYCTRRDSNYDGGFDYWGQGTTVTVSS
VL: DIQMTQSPSSLSASVGDRVTITCRASKSVSTSGYSYMHWYQQKPGKAPKLLIYLAYHLESGVPSRFSGSGSGTDFTLTISSLQPEDFATYYCQHSWELPITFGQGTKLEIKR
B2: the binding entry in assay [1] and in assay [2] was “binds” each time.

B3: anti-PD-1 humanized antibody c53 (antibody, V domains shown)
VH: QVQLVQSGAEVKKPGASVKVSCKASGYTFTTYYMYWVRQAPGQGLEWMGGINPSNGGTNYAQKFQGRATMTVDTSTSTAYMELSSLRSEDTAVYYCTRRDSNYDGGFDYWGQGTTVTVSS
VL: DIQMTQSPSSLSASVGDRVTITCRASKSVSTSGYSYMHWYQQKPGKAPKLLIYLAYHLESGVPSRFSGSGSGTDFTLTISSLQPEDFATYYCQHSWELPITFGQGTKLEIKR
On to B3, for which the binding entry in assay [1] and in assay [2] was “binds” throughout.

B4: anti-PD-1 mouse monoclonal antibody PD-1-112-C2 (antibody, V domains shown)
VH: QVQLQQPGAELVKPGASVKLSCKASGYTFTTYYMYWVKQRPGQGLEWIGGINPSNGGTNFNEKFKSKATLTVDKSSSTAYMQLSSLTSEDSAVYYCTRRDSNYDGGFDYWGQGTTLTVSS
VL: DIVLTQSPASLAVSLGQRATISCRASKSVSTSGYSYMHWYQQKPGQPPKLLIYLAYHLESGVPARFSGSGSGTDFTLNIHPVEEEDAATYYCQHSWELPITFGSGTKLEIKR
For B4, the binding entry in assay [2] was “binds”.
